Source: the supplement of paper PMC10849652
Some of the results follow.

Protein sequences, listed by entry. Tags and fused reporters are not part of them. Lines headed by an entry give the natural chain unless they say otherwise; changes in a name come on top.
UniProt Q8IXK0: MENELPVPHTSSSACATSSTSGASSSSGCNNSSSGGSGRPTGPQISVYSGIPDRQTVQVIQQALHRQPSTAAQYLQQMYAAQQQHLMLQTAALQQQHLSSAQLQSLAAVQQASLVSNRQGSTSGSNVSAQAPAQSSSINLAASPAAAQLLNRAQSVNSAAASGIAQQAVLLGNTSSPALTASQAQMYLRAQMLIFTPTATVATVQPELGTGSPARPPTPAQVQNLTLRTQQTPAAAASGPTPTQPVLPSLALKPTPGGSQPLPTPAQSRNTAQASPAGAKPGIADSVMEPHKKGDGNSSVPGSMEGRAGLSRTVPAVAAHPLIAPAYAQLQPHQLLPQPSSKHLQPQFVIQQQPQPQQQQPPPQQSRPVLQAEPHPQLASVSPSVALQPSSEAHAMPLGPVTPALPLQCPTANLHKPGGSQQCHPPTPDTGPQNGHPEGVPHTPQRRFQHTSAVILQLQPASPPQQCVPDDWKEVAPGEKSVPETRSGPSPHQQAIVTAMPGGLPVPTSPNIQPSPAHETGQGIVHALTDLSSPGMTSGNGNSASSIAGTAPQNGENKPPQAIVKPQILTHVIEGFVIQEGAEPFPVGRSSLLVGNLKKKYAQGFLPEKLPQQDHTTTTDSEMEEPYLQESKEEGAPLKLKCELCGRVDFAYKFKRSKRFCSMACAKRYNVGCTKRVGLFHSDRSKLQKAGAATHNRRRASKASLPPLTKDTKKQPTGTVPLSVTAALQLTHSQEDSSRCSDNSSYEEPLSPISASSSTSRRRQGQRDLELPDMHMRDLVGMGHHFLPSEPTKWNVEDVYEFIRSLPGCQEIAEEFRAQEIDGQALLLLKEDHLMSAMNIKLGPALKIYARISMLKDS
UniProt Q9C010: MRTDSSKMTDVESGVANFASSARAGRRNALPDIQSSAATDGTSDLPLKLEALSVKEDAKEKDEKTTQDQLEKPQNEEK
UniProt O60346: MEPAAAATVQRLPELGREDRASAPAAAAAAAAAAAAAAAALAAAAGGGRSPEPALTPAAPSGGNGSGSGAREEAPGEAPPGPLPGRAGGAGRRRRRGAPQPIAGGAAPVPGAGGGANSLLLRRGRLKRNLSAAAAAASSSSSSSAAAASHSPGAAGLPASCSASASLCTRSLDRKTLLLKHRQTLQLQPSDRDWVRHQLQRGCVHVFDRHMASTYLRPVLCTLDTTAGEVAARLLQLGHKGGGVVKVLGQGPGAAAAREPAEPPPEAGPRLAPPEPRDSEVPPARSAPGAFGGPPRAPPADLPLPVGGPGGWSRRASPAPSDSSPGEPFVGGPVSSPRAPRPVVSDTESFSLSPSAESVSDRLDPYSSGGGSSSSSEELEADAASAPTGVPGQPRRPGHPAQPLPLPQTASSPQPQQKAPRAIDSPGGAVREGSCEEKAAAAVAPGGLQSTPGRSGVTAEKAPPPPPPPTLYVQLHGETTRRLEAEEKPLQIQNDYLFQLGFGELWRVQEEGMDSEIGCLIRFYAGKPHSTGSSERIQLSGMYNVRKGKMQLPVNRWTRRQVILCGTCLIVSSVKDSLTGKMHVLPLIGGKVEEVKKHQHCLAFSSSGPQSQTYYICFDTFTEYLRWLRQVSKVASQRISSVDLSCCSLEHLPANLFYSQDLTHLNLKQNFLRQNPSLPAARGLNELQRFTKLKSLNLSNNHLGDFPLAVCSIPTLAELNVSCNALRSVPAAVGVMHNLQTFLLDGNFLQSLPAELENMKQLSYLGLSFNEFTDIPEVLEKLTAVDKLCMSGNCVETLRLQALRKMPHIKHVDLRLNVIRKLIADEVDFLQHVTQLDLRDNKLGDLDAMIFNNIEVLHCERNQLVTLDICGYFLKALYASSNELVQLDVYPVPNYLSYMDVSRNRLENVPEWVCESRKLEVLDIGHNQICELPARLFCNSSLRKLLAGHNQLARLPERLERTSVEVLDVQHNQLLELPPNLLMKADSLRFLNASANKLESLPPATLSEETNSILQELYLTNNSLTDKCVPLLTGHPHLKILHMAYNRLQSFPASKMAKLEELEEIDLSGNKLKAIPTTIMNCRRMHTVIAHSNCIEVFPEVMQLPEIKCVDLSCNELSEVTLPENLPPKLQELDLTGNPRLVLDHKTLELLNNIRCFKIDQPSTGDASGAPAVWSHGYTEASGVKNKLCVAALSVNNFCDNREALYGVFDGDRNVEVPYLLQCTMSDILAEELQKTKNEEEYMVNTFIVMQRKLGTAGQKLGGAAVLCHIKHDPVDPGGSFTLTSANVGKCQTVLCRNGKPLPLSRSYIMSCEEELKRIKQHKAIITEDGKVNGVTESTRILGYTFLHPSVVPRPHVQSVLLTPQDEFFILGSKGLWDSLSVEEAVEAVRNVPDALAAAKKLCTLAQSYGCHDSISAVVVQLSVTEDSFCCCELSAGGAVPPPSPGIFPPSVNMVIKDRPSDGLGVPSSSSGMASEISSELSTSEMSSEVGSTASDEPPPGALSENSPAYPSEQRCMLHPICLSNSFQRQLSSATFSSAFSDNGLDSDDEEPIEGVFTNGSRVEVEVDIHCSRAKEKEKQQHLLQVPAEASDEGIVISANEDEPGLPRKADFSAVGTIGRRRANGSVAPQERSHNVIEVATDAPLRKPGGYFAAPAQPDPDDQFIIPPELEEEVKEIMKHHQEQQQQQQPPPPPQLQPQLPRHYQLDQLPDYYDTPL
UniProt Q6P5Z2: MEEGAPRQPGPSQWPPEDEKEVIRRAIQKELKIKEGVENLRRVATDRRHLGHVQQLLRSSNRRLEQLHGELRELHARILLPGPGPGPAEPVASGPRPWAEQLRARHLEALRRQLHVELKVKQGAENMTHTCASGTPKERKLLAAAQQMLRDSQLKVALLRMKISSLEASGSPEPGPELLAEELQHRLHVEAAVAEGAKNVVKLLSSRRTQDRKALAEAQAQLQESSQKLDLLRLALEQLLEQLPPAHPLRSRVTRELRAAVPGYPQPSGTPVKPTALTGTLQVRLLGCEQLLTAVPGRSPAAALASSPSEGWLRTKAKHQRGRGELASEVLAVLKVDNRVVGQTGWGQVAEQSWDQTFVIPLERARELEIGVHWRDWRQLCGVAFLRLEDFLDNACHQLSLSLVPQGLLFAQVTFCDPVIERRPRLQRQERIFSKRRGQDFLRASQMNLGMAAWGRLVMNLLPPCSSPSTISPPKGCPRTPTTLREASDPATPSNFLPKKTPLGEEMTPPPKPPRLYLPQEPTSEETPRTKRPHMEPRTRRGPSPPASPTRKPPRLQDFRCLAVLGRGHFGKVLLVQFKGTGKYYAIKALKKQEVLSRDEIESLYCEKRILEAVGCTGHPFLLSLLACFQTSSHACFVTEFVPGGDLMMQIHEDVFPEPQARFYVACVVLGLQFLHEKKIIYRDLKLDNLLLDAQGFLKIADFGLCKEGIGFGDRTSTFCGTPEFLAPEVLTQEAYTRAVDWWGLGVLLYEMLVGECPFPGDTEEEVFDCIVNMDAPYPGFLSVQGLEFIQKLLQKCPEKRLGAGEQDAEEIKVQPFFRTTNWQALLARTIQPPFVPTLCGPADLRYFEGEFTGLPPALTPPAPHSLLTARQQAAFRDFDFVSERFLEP
UniProt Q9Y2B9: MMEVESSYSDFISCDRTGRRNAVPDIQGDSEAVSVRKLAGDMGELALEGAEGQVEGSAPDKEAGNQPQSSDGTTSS
UniProt O00443: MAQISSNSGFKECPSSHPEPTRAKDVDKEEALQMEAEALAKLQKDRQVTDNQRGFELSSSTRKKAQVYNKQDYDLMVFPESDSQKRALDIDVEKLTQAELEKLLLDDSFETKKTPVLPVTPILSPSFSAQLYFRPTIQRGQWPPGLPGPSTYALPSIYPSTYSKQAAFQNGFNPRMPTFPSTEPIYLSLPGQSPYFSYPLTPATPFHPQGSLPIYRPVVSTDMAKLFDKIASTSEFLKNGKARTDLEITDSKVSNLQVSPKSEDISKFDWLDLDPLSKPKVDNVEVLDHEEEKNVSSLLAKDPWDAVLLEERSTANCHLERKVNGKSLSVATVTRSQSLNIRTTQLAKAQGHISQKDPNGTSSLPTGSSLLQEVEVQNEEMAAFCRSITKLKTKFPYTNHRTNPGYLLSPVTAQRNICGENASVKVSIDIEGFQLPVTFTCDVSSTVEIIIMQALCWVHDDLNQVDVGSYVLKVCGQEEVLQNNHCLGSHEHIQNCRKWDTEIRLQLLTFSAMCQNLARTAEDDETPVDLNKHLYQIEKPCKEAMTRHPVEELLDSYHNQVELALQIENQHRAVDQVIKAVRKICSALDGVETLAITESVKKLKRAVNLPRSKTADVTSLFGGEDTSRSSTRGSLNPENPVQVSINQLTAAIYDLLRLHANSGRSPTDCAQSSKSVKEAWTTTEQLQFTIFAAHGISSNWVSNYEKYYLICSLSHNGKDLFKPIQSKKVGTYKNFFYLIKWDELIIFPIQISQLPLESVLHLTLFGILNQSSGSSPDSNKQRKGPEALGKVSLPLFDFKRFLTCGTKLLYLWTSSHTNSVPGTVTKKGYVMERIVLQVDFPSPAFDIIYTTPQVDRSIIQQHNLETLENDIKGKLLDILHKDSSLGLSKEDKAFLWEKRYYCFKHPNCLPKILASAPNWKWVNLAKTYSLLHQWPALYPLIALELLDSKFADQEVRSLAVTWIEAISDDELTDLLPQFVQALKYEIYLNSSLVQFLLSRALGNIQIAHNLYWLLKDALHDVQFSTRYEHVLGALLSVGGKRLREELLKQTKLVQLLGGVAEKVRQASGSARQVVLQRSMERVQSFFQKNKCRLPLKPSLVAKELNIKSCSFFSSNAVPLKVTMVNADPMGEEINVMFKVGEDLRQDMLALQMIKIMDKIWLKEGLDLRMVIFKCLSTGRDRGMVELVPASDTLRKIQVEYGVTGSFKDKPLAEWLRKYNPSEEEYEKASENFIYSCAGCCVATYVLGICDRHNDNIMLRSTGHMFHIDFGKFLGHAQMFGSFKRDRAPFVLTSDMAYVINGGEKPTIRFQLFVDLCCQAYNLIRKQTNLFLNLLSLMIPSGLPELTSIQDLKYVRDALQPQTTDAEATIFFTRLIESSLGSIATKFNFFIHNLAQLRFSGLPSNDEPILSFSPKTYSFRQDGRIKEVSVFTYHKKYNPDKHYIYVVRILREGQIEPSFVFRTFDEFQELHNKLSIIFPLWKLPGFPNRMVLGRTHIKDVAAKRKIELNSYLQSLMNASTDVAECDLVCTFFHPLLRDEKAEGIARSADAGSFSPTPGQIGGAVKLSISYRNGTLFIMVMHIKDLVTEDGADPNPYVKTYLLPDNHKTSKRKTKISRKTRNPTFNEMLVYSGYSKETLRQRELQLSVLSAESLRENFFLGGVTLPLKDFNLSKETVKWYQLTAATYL
UniProt Q99640: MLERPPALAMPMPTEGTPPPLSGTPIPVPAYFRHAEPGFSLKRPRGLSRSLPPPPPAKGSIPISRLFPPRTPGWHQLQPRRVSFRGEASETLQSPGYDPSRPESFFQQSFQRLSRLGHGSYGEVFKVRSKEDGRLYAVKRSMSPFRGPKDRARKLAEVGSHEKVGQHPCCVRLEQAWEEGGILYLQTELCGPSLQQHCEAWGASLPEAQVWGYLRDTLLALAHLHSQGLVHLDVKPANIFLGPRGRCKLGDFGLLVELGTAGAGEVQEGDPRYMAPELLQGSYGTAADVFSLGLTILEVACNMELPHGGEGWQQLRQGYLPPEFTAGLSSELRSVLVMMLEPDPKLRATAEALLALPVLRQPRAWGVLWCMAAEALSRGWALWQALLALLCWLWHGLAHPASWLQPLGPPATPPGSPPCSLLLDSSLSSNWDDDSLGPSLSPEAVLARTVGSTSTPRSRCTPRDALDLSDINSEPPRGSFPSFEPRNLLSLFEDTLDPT
UniProt Q8N2W9: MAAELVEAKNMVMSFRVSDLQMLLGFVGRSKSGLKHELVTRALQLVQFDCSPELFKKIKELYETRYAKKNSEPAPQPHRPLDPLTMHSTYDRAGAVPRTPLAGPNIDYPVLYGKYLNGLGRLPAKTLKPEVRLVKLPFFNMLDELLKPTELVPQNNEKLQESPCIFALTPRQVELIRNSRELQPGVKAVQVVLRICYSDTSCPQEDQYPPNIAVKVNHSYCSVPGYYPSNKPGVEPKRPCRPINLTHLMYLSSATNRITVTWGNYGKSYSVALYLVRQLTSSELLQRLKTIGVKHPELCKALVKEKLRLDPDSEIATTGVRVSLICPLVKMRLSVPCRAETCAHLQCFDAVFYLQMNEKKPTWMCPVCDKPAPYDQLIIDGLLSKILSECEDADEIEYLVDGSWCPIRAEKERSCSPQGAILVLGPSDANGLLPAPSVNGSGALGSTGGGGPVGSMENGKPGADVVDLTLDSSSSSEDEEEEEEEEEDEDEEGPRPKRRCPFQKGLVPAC
UniProt Q8N2A8: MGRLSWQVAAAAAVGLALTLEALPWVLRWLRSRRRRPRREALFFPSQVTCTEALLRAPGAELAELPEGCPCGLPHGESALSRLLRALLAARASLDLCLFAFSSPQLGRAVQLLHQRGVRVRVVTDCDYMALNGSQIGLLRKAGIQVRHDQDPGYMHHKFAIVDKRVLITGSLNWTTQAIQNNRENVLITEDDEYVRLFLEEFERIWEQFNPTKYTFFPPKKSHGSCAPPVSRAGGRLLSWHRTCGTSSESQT

Key:
Assay in all cases: log2 fold change, soluble protein after heating vs DMSO (PISA); higher = thermal stabilisation; K562 cells, 10 uM, 30 min; active = over 0.2 and 3.5 SD of the protein, either way, in both replicates (recomputed)
[1] = compound: NC(=O)Nc1cc(-c2cccc(F)c2)sc1C(=O)N[C@H]1CCCNC1
How it was run: (§1)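 Thermal stability values are relative to control samples and come from duplicates. They are expressed as log2 fold changes. For measurement, K562 cells (2×10^6 cells/mL) received 10 μM compound for 30 min, and aliquots were heated for 3 min over 48°C-58°C, pooled, and extracted at 4°C in PBS with 0.5% NP-40. Soluble protein, the supernatant after 21,000xg for 90 min, was quantified by TMTpro 16plex LC-MS/MS with equalised channel sums.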

[2] = compound: NC1(c2ccc(-c3nc4ccn5c(=O)[nH]nc5c4cc3-c3ccccc3)cc2)CCC1
How it was run: as §1

[3] = compound: NCC(=O)Nc1ccc(-n2nc(C(F)(F)F)cc2-c2ccc3c(ccc4ccccc43)c2)cc1
How it was run: as §1

[4] = compound: Nc1ccccc1NC(=O)c1ccc(CNC(=O)OCc2cccnc2)cc1 [entinostat]
How it was run: as §1

[5] = compound: O=C(CCCCCCNC(=O)c1cnc(N(c2ccccc2)c2ccccc2Cl)nc1)NO [citarinostat]
How it was run: as §1

[6] = compound: O=C(O)c1ccc2c(c1)nc(Nc1cccc(Cl)c1)c1ccncc12 [silmitasertib]
How it was run: as §1

[7] = compound: O=C1NC(=O)C(c2cnc3ccccn23)=C1c1cn2c3c(cc(F)cc13)CN(C(=O)N1CCCCC1)CC2
How it was run: as §1

[8] = compound: c1cc(OCCN2CCCCC2)cc(-c2n[nH]c3ccc(-c4nnc[nH]4)cc23)c1
How it was run: as §1

[9] = compound: NC(=O)c1cnc(N[C@@H]2CCCC[C@@H]2N)nc1Nc1cccc(-n2nccn2)c1
How it was run: as §1

[10] = compound: O=C(CCCCCCC(=O)Nc1ccccc1)NO [vorinostat]
How it was run: as §1

Measured: log2 fold change

PHC2 isoform 5 (UniProt Q8IXK0)
inactive: [1] 0.084 | [2] -0.262 | [3] -0.02 | [4] -0.071 | [5] -0.039 | [6] -0.138 | [7] 0.162 | [8] -0.262

PKLR (UniProt F8W6W2)
inactive: [9] -0.407 | [3] -0.475

PIMREG (UniProt Q9BSJ6)
inactive: [10] -0.205 | [5] -0.061 | [8] -0.217

PIGL (UniProt Q9Y2B2)
inactive: [9] 0.064 | [2] 0.057 | [3] 0.03 | [10] -0.027 | [5] -0.011 | [6] 0.187 | [7] 0.074 | [8] -0.037

PHETA1 isoform 4 (UniProt Q8N4B1)
inactive: [9] -0.116 | [10] 0.014

PGD (UniProt K7EM49)
inactive: [3] -0.061 | [10] -0.301 | [7] -0.203

PKIB isoform 2 (UniProt Q9C010)
inactive: [2] 0.083 | [10] -0.034 | [5] -0.028 | [6] 0.003 | [8] -0.248

PFKFB1 (UniProt P16118)
inactive: [1] -0.338 | [2] -0.019 | [4] 0.2 | [10] -0.113 | [6] 0.089 | [7] -0.051

PHYKPL (UniProt Q8IUZ5)
inactive: [1] -0.02 | [2] 0.018 | [4] -0.032 | [10] 0.045 | [6] -0.011 | [7] -0.012

PIM1 isoform 2 (UniProt P11309)
inactive: [2] 0.388 | [10] -0.123 | [6] 0.575

PIBF1 (UniProt Q8WXW3)
inactive: [2] 0.389 | [6] 0.033

PFKM (UniProt F8VTQ3)
inactive: [10] 0.017

Copied from the listing (2 entries):
PHYKPL (UniProt Q8IUZ5)
inactive: [1] -0.02 | [2] 0.018 | [4] -0.032 | [10] 0.045 | [6] -0.011 | [7] -0.012

PIM1 isoform 2 (UniProt P11309)
inactive: [2] 0.388 | [10] -0.123 | [6] 0.575

More records.

PLAUR (UniProt Q03405)
inactive: [9] 0.172

PIGO (UniProt Q8TEQ8)
inactive: [2] -0.076 | [3] -0.075 | [6] -0.15 | [7] -0.108

PICK1 (UniProt Q9NRD5)
inactive: [1] -0.33 | [2] -0.217 | [4] -0.155 | [6] 0.143 | [7] 0.049

PHLPP1 (UniProt O60346)
inactive: [7] -0.011

PKHD1 (UniProt P08F94)
inactive: [9] -0.29 | [3] -0.113 | [5] 0.084 | [8] -0.013

PHF14 (UniProt O94880)
inactive: [1] 0 | [2] 0.158 | [3] 0.127 | [4] -0.127 | [10] -0.145 | [6] 0.211

PLCG2 (UniProt P16885)
inactive: [9] -0.274 | [5] -0.163 | [8] -0.021

PIP5K1C isoform 3 (UniProt O60331)
inactive: [1] -0.01 | [4] 0.028 | [10] 0.225 | [7] 0.087

PLEKHA5 isoform 6 (UniProt Q9HAU0)
inactive: [9] -0.03 | [2] 0.146 | [3] 0.094 | [10] -0.038 | [5] 0.29 | [6] 0.139 | [7] -0.006 | [8] -0.501

PKP4 (UniProt Q99569)
inactive: [5] 0.023 | [7] 0.14 | [8] 0.012

PI4KB isoform 2 (UniProt Q9UBF8)
inactive: [10] -0.023 | [5] -0.056 | [8] 0.046

PKNOX1 (UniProt P55347)
inactive: [9] 0.093

PHRF1 (UniProt Q9P1Y6)
inactive: [2] 0.148 | [6] 0.176

PIGM (UniProt Q9H3S5)
inactive: [1] 0.061 | [3] -0.031 | [4] 0 | [5] 0 | [8] -0.057

PLEK (UniProt P08567)
inactive: [3] 0.073

PHOSPHO2 (UniProt Q8TCD6)
inactive: [9] -0.06 | [2] -0.06 | [3] 0.04 | [6] 0.009

PKN3 (UniProt Q6P5Z2)
inactive: [1] 0.009 | [4] -0.135

PKIG (UniProt Q9Y2B9)
inactive: [2] 0.377 | [6] 0.106

PHLDB1 isoform 2 (UniProt Q86UU1)
inactive: [9] 0.112 | [2] -0.057 | [3] -0.186 | [10] 0.229 | [5] -0.014 | [6] 0.045 | [7] -0.178 | [8] -0.117

PHC3 isoform 7 (UniProt Q8NDX5)
active: [7] 0.567
inactive: [1] 0.158 | [2] -0.125 | [4] 0.1 | [5] 0.172 | [6] -0.018 | [8] -0.014

PIK3C2A (UniProt O00443)
inactive: [1] -0.005 | [2] -0.04 | [4] 0.071 | [6] 0.02 | [7] 0.5

PIGH (UniProt Q14442)
inactive: [9] -0.021 | [2] -0.087 | [3] -0.021 | [10] 0.18 | [5] 0.031 | [6] 0.093 | [7] -0.128 | [8] -0.05

PHF19 isoform 2 (UniProt Q5T6S3)
inactive: [1] -0.006 | [2] -0.235 | [3] -0.008 | [4] 0.017 | [10] -0.122 | [5] 0.054 | [6] 0.225 | [7] -0.011 | [8] 0.004

PKMYT1 (UniProt Q99640)
inactive: [1] 0 | [4] 0.049 | [5] -0.098 | [7] 0.183 | [8] 0.003

PIGB (UniProt Q92521)
inactive: [1] 0.117 | [2] -0.188 | [4] -0.135 | [10] 0.009 | [5] 0 | [6] -0.086 | [7] -0.016 | [8] -0.056

PIAS4 (UniProt Q8N2W9)
inactive: [2] 0.094 | [10] -0.014 | [6] -0.271 | [7] -0.404

PEX26 (UniProt Q7Z412)
inactive: [9] -0.061 | [2] -0.148 | [3] -0.045 | [10] 0.026 | [6] 0.069 | [7] -0.279

PLD6 (UniProt Q8N2A8)
inactive: [1] 0.085 | [3] -0.145 | [4] 0 | [7] 0.086
